Patent publication US20200217852A1, “Quantitation of Free and Total N-Acetylcysteine Amide and Its Metabolite N-Acetylcysteine in Human Plasma Using Derivatization and Electrospray LC-MS/MS” (NACUITY PHARMACEUTICALS, INC., priority 2019, published 2020)
Some entries share one result that the patent states for a list of compounds.

Legend:
[1] = Stock and spiking solution stability in disodium EDTA; type: physicochemical; conditions: 5.00 mg/mL in disodium EDTA, stored at 2-8° C.
[2] = Stability in CMPI-fortified whole blood held on wet ice; type: in vitro ADME, human; conditions: CMPI-fortified whole blood in ice-water, over multiple points
[3] = Stability of plasma extracts (held for first injection or reinjected); type: physicochemical; conditions: samples already injected and then maintained at 2-8° C.

CC(=O)N[C@@H](CS)C(=O)O [NAC, N-acetyl-L-cysteine]
Stock Solution Stability [1]: ≥ 35 days | Whole Blood Stability [2]: At least 0.96 hours in ice-water, over multiple points | Reinjection Reproducibility [3]: At least 91 hours for samples already injected and then maintained at 2-8 °C
